PubChem BioAssay AID2685 (National Center for Advancing Translational Sciences (NCATS), 2010)
The other results are listed elsewhere or left out. Further columns of the screen follow, without active or inactive calls. Most of these compounds were active or inconclusive in the main read-out, so they are no random draw. Words in brackets tell the shape of the fitted curve; partial curves, single points and poor fits give uncertain potencies.

Assay: qHTS Assay for Lipid Storage Modulators in Drosophila S3 Cells;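 as to cell number change: cells counted by Cell Tracker Red CMTPX staining in the red channel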
Details: BODIPY lipid droplet fluorescence, 18-24 h; for cell number change: measured here: cell count max response, cells fed with added oleic acid
Outline: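 Drosophila S3 cells loaded with oleic acid (400 uM, as added) and compounds at several concentrations; lipid droplets imaged by 488-nm laser-scanning cytometry, 500–530 nm intensity and object ratio to cell channel. Percent activity normalized to 20 uM Triacsin C.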

[1] = measured here: lipid fluorescence (Fed channel) AC50, cells fed with added oleic acid
[2] = measured here: cell number channel AC50, cells fed with added oleic acid

Compound | cell number change | AC50 [1] | AC50 [2]
C/C(=N\NC(=O)c1ccc(NS(=O)(=O)c2cccs2)cc1)c1ccc(C(C)(C)C)cc1 | -18.9% | 13 µM [falling, single point] | –
O=C(/C=C/Nc1cccc(C(F)(F)F)c1)C(F)(F)F | -15.5% | 6.51 µM [rising, partial curve, poor fit] | –
COc1ccc(N2C(C(C)=O)=NN(c3ccccc3)C2c2cccs2)cc1 (stereo not drawn) | 34.5% | 1.46 µM [rising, full curve] | 7.31 µM [rising, full curve, poor fit]
O=C(Nc1ccc(Cl)c([N+](=O)[O-])c1)C(NCCCO)c1ccccc1 (stereo not drawn) | 32.8% | 14.6 µM [rising, single point] | 18.4 µM [rising, single point]
O=C(CCNC(=O)c1ccc([N+](=O)[O-])cc1)Nc1ccc(Cl)c(S(=O)(=O)N2CCOCC2)c1 | 5.39% | 0.517 µM [rising, full curve] | –
Oc1cc2c(cc1CN1CCc3ccccc3C1)OCO2 | 20.2% | 18.4 µM [rising, single point] | –
CSc1ccc(C(=O)N2CCC(CCC(=O)NC3CC3)CC2)cc1 | -4.01% | – | –
Cc1ccc(NC(=O)c2ccco2)c(NC(=O)CN2C(=O)c3ccccc3C2=O)c1 | – | – | 6.51 µM [falling, single point]
O=C(c1ccccc1)c1cc([N+](=O)[O-])ccc1N1CCCC1 | 87.3% | 16.4 µM [rising, single point] | –
NC(=O)CSc1cn(Cc2cccc(F)c2)c2ccccc12 | 42.2% | 2.31 µM [rising, partial curve, poor fit] | 2.59 µM [rising, full curve]
Cc1csc2nc(CNS(=O)(=O)c3ccc(-c4ccccc4)cc3)cn12 | -23.6% | 11.6 µM [falling, partial curve] | –
N#Cc1ccc(C(=O)Nc2cc(S(=O)(=O)N3CCCC3)ccc2OCC(F)(F)F)cc1 | 2.54% | 1.84 µM [rising, partial curve, poor fit] | –
O=C(OCc1nc2ccsc2c(=O)[nH]1)c1cc(Br)c(Br)s1 | -8.12% | 0.651 µM [falling, single point] | –
O=C(NCCSc1ccccc1)c1ccc(Br)cc1 | 2.81% | 20.6 µM [rising, single point] | –
CCn1cc([N+](=O)[O-])c(C(=O)N2N=C(c3ccc(Cl)c(Cl)c3)CC2c2ccccc2O)n1 (stereo not drawn) | -49.5% | 29.1 µM [falling, single point] | 29.1 µM [falling, single point]
Cc1ccc(-n2c(O)c(C=Nc3ccccc3-c3n[nH]c(=S)[nH]c3=O)c3ccccc3c2=O)cc1C | -2.52% | – | –
CC(NS(=O)(=O)c1ccc2c(c1)oc(=O)n2C)c1ccccc1 (stereo not drawn) | 16.2% | 29.1 µM [rising, single point] | –
O=C(NCc1cccs1)c1cc(-c2cccc(Cl)c2)on1 | -2.57% | 1.84 µM [rising, full curve, poor fit] | –
CC(Sc1nnnn1C)C(=O)Nc1ncc(Cl)cc1Cl (stereo not drawn) | -1.83% | 16.4 µM [falling, partial curve] | –

Compound | cell number change | AC50 [1] | AC50 [2]
CC(/C=C/c1ccc(N(C)C)cc1)=N/N=C1/NC(=O)CC(C(=O)Nc2ccc(Cl)cc2)S1 (stereo not drawn) | -6.34% | 18.4 µM [rising, single point] | –
Cc1ccc(S(=O)(=O)c2cccc(S(=O)(=O)N3CCCC3)c2)cc1S(=O)(=O)N1CCCC1 | 4.29% | 0.206 µM [falling, full curve] | 0.411 µM [falling, single point]
CC(Sc1n[nH]c(=O)[nH]c1=O)C(=O)OCc1ccccc1 (stereo not drawn) | 4.89% | 6.51 µM [falling, single point] | –
Cn1nc(C(=O)NNC(=O)COc2ccccc2)c2ccccc2c1=O | – | 16.4 µM [rising, partial curve] | –
c1ccc(CCc2ccccc2-c2nc(-c3ccccn3)no2)cc1 | – | 1.46 µM [rising, partial curve] | 1.16 µM [rising, partial curve]
O=C(Cc1ccccc1)Nc1ccccc1N1CCCC1 | 16.2% | – | –
COCCn1c(N)c(Sc2ccc(Cl)cc2)c(=O)[nH]c1=O | -10.5% | 6.51 µM [falling, single point] | –
CC(Oc1ccc(Br)cc1)C(=O)NCC(c1ccco1)N1CCCCC1 (stereo not drawn) | 26.5% | – | –
OC(CNCC1CCCO1)Cn1c2ccc(Br)cc2c2cc(Br)ccc21 (stereo not drawn) | -79.1% | 29.1 µM [falling, single point] | 25.9 µM [falling, single point]
COC(=O)[C@H](CC(C)C)NC(=O)NCc1ccc(Cl)cc1 | 12.2% | – | –
CC(=O)Nc1ccc(S(=O)(=O)NCCCc2ccccc2)cc1 | 12.9% | 3.26 µM [rising, single point] | –
O=C(OCC(=O)N1CCCCC1)c1c[nH]c(=O)[nH]c1=O | -27.8% | 0.291 µM [falling, full curve] | –
CCOc1cc(N2CCOCC2)c(OCC)cc1NC(=O)c1nc2nc(C)cc(C)n2n1 | 19% | 0.146 µM [rising, full curve, poor fit] | –
CCOc1ccc(Cl)cc1CNCCNCCO | -14.9% | – | –
Cc1cc(Br)ccc1SCC(=O)NCC(c1ccco1)N1CCCCC1 (stereo not drawn) | 42.7% | – | 16.4 µM [rising, single point]
Cc1cc(C)n(CC(=O)N2N=C(C(F)F)CC2(O)C(F)F)n1 (stereo not drawn) | – | 6.51 µM [rising, single point] | 3.66 µM [rising, partial curve, poor fit]
CC(=O)Oc1cccc(C(=O)Nc2cccc(C(=O)Nc3ccccc3C(=O)O)c2)c1 | 11% | – | –
Cc1cc(Nc2ccccc2)nn1C(=O)c1ccc(Cl)cc1 | 53.5% | – | 7.31 µM [rising, partial curve]
COc1ccc(/C(O)=C2\C(=O)C(=O)N(CCCN(C)C)C2c2ccccc2F)cc1Cl (stereo not drawn) | 3.36% | 0.116 µM [falling, full curve, poor fit] | –

Grouped by structure, the compounds so far with a CF3 group.
Compound | cell number change | AC50 [1] | AC50 [2]
O=C(/C=C/Nc1cccc(C(F)(F)F)c1)C(F)(F)F | -15.5% | 6.51 µM [rising, partial curve, poor fit] | –
N#Cc1ccc(C(=O)Nc2cc(S(=O)(=O)N3CCCC3)ccc2OCC(F)(F)F)cc1 | 2.54% | 1.84 µM [rising, partial curve, poor fit] | –
